Data as given in doi:10.1101/2020.04.27.046102.
These are yes or no findings as the source states them, for the method shown. Binding seen in cells or lysates may run through a third protein. Some results given as binding are weak or reduced against the parent protein; the word gives no strength.

Chains of the proteins cited; added tags and fusions are not shown. Lines headed by an entry give the natural chain unless they say otherwise; changes in a name come on top. Residues count along the entry.
UniProt Q04206, 1-328, stated change not applied: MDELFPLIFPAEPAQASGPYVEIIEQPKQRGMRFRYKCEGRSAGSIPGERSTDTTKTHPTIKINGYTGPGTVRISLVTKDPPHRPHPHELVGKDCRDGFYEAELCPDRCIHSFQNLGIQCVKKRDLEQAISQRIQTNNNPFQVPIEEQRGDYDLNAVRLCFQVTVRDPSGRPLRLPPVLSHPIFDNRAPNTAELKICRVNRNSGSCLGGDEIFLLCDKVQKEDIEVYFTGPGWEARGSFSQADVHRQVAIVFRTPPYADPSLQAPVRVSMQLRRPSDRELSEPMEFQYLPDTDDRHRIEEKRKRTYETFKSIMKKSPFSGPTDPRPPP
UniProt Q04206, whole entry: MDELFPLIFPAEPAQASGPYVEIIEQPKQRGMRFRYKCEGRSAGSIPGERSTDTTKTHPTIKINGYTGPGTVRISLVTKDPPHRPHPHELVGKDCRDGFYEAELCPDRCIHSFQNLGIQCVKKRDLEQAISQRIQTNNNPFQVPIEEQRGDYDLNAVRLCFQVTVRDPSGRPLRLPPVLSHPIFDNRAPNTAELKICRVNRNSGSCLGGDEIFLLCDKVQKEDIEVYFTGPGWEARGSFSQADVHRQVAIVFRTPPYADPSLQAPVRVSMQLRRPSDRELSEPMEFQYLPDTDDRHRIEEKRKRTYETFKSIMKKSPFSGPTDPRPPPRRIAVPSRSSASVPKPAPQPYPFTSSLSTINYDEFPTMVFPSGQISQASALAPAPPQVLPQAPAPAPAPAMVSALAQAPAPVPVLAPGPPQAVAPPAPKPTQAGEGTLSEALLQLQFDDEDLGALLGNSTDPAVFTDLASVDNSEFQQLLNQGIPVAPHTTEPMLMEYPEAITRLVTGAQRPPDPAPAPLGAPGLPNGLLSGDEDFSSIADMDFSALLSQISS
UniProt P25963, whole entry: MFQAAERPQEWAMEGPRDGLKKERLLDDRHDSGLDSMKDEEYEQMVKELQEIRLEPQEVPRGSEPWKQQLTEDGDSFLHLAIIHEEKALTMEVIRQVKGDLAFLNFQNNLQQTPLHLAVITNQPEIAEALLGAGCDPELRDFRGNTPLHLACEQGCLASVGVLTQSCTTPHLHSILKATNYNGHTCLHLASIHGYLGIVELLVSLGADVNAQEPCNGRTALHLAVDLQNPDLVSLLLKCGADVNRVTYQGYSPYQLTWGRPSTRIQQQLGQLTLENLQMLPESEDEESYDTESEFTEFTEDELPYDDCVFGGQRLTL
UniProt P19838, 1-433: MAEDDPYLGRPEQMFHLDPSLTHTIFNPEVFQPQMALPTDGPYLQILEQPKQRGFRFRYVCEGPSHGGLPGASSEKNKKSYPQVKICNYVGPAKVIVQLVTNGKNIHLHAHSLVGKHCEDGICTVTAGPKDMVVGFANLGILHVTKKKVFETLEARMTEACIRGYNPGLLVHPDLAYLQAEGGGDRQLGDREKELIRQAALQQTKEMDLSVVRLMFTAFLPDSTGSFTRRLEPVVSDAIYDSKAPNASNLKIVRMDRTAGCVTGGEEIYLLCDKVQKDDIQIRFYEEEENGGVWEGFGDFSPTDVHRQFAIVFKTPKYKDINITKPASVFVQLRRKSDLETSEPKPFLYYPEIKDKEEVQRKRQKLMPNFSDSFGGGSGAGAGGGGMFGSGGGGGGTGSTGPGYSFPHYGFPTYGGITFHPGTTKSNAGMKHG

Key:
Experiment in all cases: co-IP
[1] = biological target: RELA/p65^R329X truncated mutant protein (HA-tagged) (human) (UniProt Q04206)
[2] = biological target: RELA/p65 wild-type protein (HA-tagged RELA/p65) (human) (UniProt Q04206)
[3] = biological target: RELA/p65^H86N mutant protein (HA-tagged) (human) (UniProt Q04206)

binding [1]	binding [2]	binding [3]	Substance
binds	binds		RELA/p65^R329X truncated mutant protein (HA-tagged) (from UniProt Q04206-1 1-328) (domain or fragment)
binds		binds	IκB-α (from UniProt P25963 1-317)
binds		binds	NF-κB1/p50 (from UniProt P19838 1-433)
	binds	binds	RELA/p65^H86N mutant protein (HA-tagged) (from UniProt Q04206-1 1-551)
